Results are given in words; binding and its absence hold for the method and conditions named. Binding can be weak; no strength is given.
Biological target: first coiled-coil (CC1) of SLMAP (recombinant, Fig. 7d) (human) (UniProt Q14BN4)
Assay: pull-down; MBP pulldown: MBP-tagged protein, partner and amylose resin mixed at 4 °C for 1 h in 20 mM HEPES (pH 7.5), 100 mM NaCl; eluted with 20 mM maltose; SDS-PAGE, Coomassie staining; both purified

Protein sequences, listed by entry. Tags and fused reporters are not part of them. Lines headed by an entry give the natural chain unless they say otherwise; changes in a name come on top.
UniProt Q14BN4: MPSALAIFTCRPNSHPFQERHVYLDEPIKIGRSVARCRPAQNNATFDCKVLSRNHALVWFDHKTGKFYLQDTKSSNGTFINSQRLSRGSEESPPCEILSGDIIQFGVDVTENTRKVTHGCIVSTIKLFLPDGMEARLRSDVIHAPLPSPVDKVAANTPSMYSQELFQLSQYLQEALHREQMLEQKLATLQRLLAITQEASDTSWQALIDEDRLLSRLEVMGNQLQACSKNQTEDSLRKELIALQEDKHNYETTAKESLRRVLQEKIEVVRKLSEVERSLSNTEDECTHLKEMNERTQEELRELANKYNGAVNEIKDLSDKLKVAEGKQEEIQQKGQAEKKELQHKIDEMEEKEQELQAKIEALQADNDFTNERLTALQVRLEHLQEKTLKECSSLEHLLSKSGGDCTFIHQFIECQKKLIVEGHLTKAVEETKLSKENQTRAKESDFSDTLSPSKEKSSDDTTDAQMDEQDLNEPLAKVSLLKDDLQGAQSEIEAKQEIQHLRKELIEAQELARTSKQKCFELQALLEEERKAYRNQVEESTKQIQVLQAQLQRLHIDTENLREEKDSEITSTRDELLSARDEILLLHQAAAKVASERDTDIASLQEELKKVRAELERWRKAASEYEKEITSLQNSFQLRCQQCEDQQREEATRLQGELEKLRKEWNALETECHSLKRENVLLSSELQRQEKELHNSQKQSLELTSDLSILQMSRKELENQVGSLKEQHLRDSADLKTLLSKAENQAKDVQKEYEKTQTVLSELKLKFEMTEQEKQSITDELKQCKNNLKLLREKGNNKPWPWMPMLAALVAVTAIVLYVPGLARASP

B1: SIKE1 (recombinant, limits not stated) (protein, UniProt Q9BRV8 1-207)
chain: MSCTIEKILTDAKTLLERLREHDAAAESLVDQSAALHRRVAAMREAGTALPDQYQEDASDMKDMSKYKPHILLSQENTQIRDLQQENRELWISLEEHQDALELIMSKYRKQMLQLMVAKKAVDAEPVLKAHQSHSAEIESQIDRICEMGEVMRKAVQVDDDQFCKIQEKLAQLELENKELRELLSISSESLQARKENSMDTASQAIK
binding: binds

— article PMC6323126
